Only a part is listed here, and it is no random draw. At the low end of the ranking the order means little.
Biological target: T1, FEV (UniProt Q99581)
T1 sequence: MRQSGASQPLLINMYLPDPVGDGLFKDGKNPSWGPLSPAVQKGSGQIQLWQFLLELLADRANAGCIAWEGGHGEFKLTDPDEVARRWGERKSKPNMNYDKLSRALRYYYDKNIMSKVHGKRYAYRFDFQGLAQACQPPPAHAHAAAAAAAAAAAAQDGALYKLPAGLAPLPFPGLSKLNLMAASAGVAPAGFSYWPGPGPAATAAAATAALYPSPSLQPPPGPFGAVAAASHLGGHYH
Test: DAPPL (digital affinity profiling via proximity ligation, sequencing)
Conditions: 10 mM Tris-HCl pH 7.5, 50 mM NaCl, 1 mM DTT, 4% glycerol, room temperature, 30 min; GST-TFs on glutathione beads, 16-mer random dsDNA library, 0.1% …; high values mean tight binding; double strand, one strand shown; scale: fold enrichment (6-mer frequency, TF over GST control)

Sequence | binding signal
TCAGAT | 0.977
TACGGT | 0.997
ATACGC | 1.05
TCTACC | 1.52
TGGGAT | 1.18
TTGGTA | 1.17
TCCTGA | 1.31
CTCGGC | 1.29
AAGGAT | 1.1
GCGATA | 0.981
CGGTTT | 1.44
AGGCTT | 0.995
CCCCGA | 1.18
CACTAT | 1.21
CTATTT | 1.68
TAGGAT | 0.927
AAAACG | 1.18
TTATCG | 1.21
TGCTCC | 1.38
AAACTC | 1.18

Reformatted: entries from further up
Sequence,binding signal
TGCTCC,1.38
AAACTC,1.18

Remaining list, next part

Sequence | binding signal
ATACAC | 1.24
TCTTTC | 1.39
TTTTTC | 1.19
TCTAAC | 1.23
CGTTTT | 1.19
TTTTCG | 1.23
TCTTTT | 1.44
AGCTAT | 1.16
CGCGAT | 0.994
TTCCGA | 1.81
AAATCA | 1.2
TGATAC | 1.21
CGTTAT | 1.03
CCCCAA | 1.16
TCACTA | 1.11
CCCTTG | 1.16
TTCCGC | 3.1
CCCAAA | 1.08
TAAGGA | 0.838
TTTAAC | 1.09
